Measured values published in article PMC8894927, “Oxylipin signaling in salt-stressed soybean is modulated by ligand-dependent interaction of Class II acyl-CoA-binding proteins with lipoxygenase” (The Plant Cell, 2021).

Tested on: (His)6-GmACBP4.1_33–354
Assay: Isothermal titration calorimetry of acyl-CoA binding (WT protein)
Design: species or system soybean
Settings: ITC at 25°C, mean ± SD, three experiments; for n, stoichiometry (number of ligand sites per protein): 15 μM protein titrated with 200 μM acyl-CoA
Experimental: ITC was conducted with a MicroCal iTC200 system (GE Healthcare) at 25°C in 10 mM sodium phosphate (pH 7) by 20 injections of 1.8-μL acyl-CoAs (200 μM; Avanti Polar Lipids Inc., Alabaster, AL, USA) into the sample cell with 15 μM purified (His)6-GmACBP4.1. Each injection lasted 4 s at 150-s intervals with a stirring speed of 1,000 rpm. Nonspecific heat effects were estimated and corrected after saturation. The baseline was adjusted, and the data were fitted into a single-site binding model using the Origin version 7.0 software (OriginLab).
Supplemental Table 1. Binding constants and thermodynamic parameters for (His)6-GmACBP4.133–354 interaction with acyl-CoAs. (Supports Figure 5A) […]
Isothermal titration calorimetry analysis was performed by titration of 250 μL of 15 μM (His)6-GmACBP4.133–354 with […]
from three independent experiments. n, stoichiometry (number of ligand sites per protein); KD, dissociation constant; ∆H, enthalpy change; −T∆S, entropy change; ∆G, Gibbs free energy.

CCCCCCCCCCCCCCCC(=O)SCCNC(=O)CCNC(=O)[C@H](O)C(C)(C)COP(=O)(O)OP(=O)(O)OC[C@H]1O[C@@H](n2cnc3c(N)ncnc32)[C@H](O)[C@@H]1OP(=O)(O)O [C16:0-CoA]
n, stoichiometry (number of ligand sites per protein): 1.08 ± 0.02
∆H, enthalpy change: -4.00 ± 0.09 kcal/mol
−T∆S, entropy change: -4.30 ± 0.28 kcal/mol

CCCCCCCC/C=C\CCCCCCCC(=O)SCCNC(=O)CCNC(=O)[C@H](O)C(C)(C)COP(=O)(O)OP(=O)(O)OC[C@H]1O[C@@H](n2cnc3c(N)ncnc32)[C@H](O)[C@@H]1OP(=O)(O)O [C18:1-CoA]
n, stoichiometry (number of ligand sites per protein): 1.22 ± 0.02
∆G, Gibbs free energy: -8.42 ± 0.50 kcal/mol
∆H, enthalpy change: -4.10 ± 0.08 kcal/mol
−T∆S, entropy change: -4.32 ± 0.42 kcal/mol

CCCCC/C=C\C/C=C\CCCCCCCC(=O)SCCNC(=O)CCNC(=O)[C@H](O)C(C)(C)COP(=O)(O)OP(=O)(O)OC[C@H]1O[C@@H](n2cnc3c(N)ncnc32)[C@H](O)[C@@H]1OP(=O)(O)O [C18:2-CoA, linoleoyl-CoA]
n, stoichiometry (number of ligand sites per protein): 1.03 ± 0.02
∆G, Gibbs free energy: -8.22 ± 0.43 kcal/mol
∆H, enthalpy change: -4.58 ± 0.11 kcal/mol
−T∆S, entropy change: -3.64 ± 0.32 kcal/mol

CC/C=C\C/C=C\C/C=C\CCCCCCCC(=O)SCCNC(=O)CCNC(=O)[C@H](O)C(C)(C)COP(=O)(O)OP(=O)(O)OC[C@H]1O[C@@H](n2cnc3c(N)ncnc32)[C@H](O)[C@@H]1OP(=O)(O)O [C18:3-CoA, linolenoyl-CoA]
n, stoichiometry (number of ligand sites per protein): 1.14 ± 0.03
∆G, Gibbs free energy: -8.09 ± 0.46 kcal/mol
∆H, enthalpy change: -3.73 ± 0.15 kcal/mol
−T∆S, entropy change: -4.36 ± 0.31 kcal/mol
